Reference: publication PMC8517208
Results are given in words; binding and its absence hold for the method and conditions named. Binding seen in cells or lysates may run through a third protein. Here binding means that the protein was enriched with, or labelled near, the bait; the list need not be complete. Where a sequence is shown, tags or fusion partners need not be part of it.

Biological target: T1, murine EpCAM in fusion with yellow fluorescent protein (YFP) at the C-terminus, in mF9 cells (murine) (UniProt Q99JW5)
T1 sequence: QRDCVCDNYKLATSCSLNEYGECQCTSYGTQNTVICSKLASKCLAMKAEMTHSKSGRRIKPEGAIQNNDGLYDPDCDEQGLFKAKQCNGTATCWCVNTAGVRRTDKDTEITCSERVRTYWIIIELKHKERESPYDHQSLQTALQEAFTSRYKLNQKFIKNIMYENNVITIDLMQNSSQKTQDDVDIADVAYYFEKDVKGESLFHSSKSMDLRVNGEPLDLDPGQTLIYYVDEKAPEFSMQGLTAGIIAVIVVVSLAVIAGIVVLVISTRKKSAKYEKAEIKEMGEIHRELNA
Test: affinity purification with mass spectrometry; SILAC: whole cell lysates of mF9 cells stably expressing EpCAM-YFP (heavy, Lys-8/Arg-10) or YFP (light); 3 or 7 mg lysate with 30 μL GFP-Trap agarose beads, 3 hrs, 4°C; washed in 0.2% tween in PBS; LC-MS/MS; three biological repeats; hits: enriched >3-fold over YFP, p ≤ 0.05, at least 2 unique peptides

B1: Flotillin-2 (protein, UniProt Q60634 1-428)
chain: MGNCHTVGPNEALVVSGGCCGSDYKQYVFGGWAWAWWCISDTQRISLEIMTLQPRCEDVETAEGVALTVTGVAQVKIMTEKELLAVACEQFLGKNVQDIKNVVLQTLEGHLRSILGTLTVEQIYQDRDQFAKLVREVAAPDVGRMGIEILSFTIKDVYDKVDYLSSLGKTQTAVVQRDADIGVAEAERDAGIREAECKKEMLDVKFMADTKIADSKRAFELQKSAFSEEVNIKTAEAQLAYELQGAREQQKIRQEEIEIEVVQRKKQIAVEAQEILRTDKELIATVRRPAEAEAHRIQQIAEGEKVKQVLLAQAEAEKIRKIGEAEAAVIEAMGKAEAERMKLKAEAYQKYGDAAKMALVLEALPQIAAKISAPLTKVDEIVVLSGDNSKVTSEVNRLLAELPASVHALTGVDLSKIPLIKNATGAQV
B1 was tested, and the binding was “binds”.

B2: Cleft lip and palate transmembrane protein 1 (protein, UniProt Q8VBZ3 1-664)
chain: MAAAQEADGAGSAVVAAGGGSSGQVTSNGSIGRDTPAETQPQNPPPQPAPNAWQVIKGVLFRIFIIWAISSWFRRGPSPQDQSGPGGAPRVASRNLFPKDTLMNLHVYISEHEHFTDFNATSALFWEQHDLVYGDWTSGENSDGCYEHFAELDIPQSVQQNGSIYIHVYFTKSGFHPDPRQKALYRRLATVHMSRMINKYKRRRFQKTKNLLTGETEADPEMIKRAEDYGPVEVISHWHPNITINIVDDHTPWVKGSVPPPLDQYVKFDAVSGDYYPIIYFNDYWNLQKDYYPINESLASLPLRVSFCPLSLWRWQLYAAQSTKSPWNFLGDELYEQSDEEQDSVKVALLETSPYLLALTIIVSIVHSVFEFLAFKNDIQFWNSRQSLEGLSVRSVFFGVFQSFVVLLYILDNETNFVVQVSVFIGVLIDLWKITKVMDVRLDREHRVAGIFPCPTFKDKSTYIESSTKVYDDMAFRYLSWILFPLLGCYAVYSLLYLEHKGWYSWVLSMLYGFLLTFGFITMTPQLFINYKLKSVAHLPWRMLTYKALNTFIDDLFAFVIKMPVMYRIGCLRDDVVFFIYLYQRWIYRVDPTRVNEFGMSGEDVSAAASRAQASTAAGALTPAPSTAVSGEDASTVPKATSGACTASQPQEAPPKPAEDKKKD
For B2, the binding was “binds”.

B3: Phosphatidate cytidylyltransferase 2 (protein, UniProt Q99L43 1-444)
chain: MTELRQRVVREDAPPEDKESESEAKLDGETASDSESRAETAPLPTSVDDTPEVLNRALSNLSSRWKNWWVRGILTLAMIAFFFIIIYLGPMVLMMIVMCVQIKCFHEIITIGYNVYHSYDLPWFRTLSWYFLLCVNYFFYGETVTDYFFTLVQREEPLRILSKYHRFISFALYLTGFCMFVLSLVKKHYRLQFYMFGWTHVTLLIVVTQSHLVIHNLFEGMIWFIVPISCVICNDIMAYMFGFFFGRTPLIKLSPKKTWEGFIGGFFATVVFGLLLSYVMSGYRCFVCPVEYNNDTNSFTVDCEPSDLFRLQEYNIPGVIQSAIGWKTVRMYPFQIHSIALSTFASLIGPFGGFFASGFKRAFKIKDFANTIPGHGGIMDRFDCQYLMATFVNVYIASFIRGPNPSKLIQQFLTLRPDQQLHIFNTLKSHLTDKGILTSALEDE
For B3, the binding was “binds”.

B4: Armadillo repeat-containing protein 10 (protein, UniProt Q9D0L7-1 1-306)
chain: MGGARDVGWVAAGLVLGAGACYCIYRLTRGPRRGGRRLRPSRSAEDLTDGSYDDILNAEQLKKLLYLLESTDDPVITEKALVTLGNNAAFSTNQAIIRELGGIPIVGNKINSLNQSIKEKALNALNNLSVNVENQTKIKIYVPQVCEDVFADPLNSAVQLAGLRLLTNMTVTNDYQHLLSGSVAGLFHLLLLGNGSTKVQVLKLLLNLSENPAMTEGLLSVQVDSSFLSLYDGQVANEILLRALTLFQNINNCLKVEGRLANQIPFAKGSLFFLLYGEECAQKMRALACHHDVDVKEKALAIKPKF
With B4 the binding was “binds”.

B5: ATPase family AAA domain-containing protein 3 (protein, UniProt Q925I1-1 1-591)
chain: MSWLFGIKGPKGEGTGPPLPLPPAQPGAEGGGDRGAGDRPSPKDKWSNFDPTGLERAAKAARELEHSRHAKEALSLAQMQEQTLQLEQQSKLKEYEAAVEQLKSEQIRVQAEERRKTLTEETRQHQARAQYQDKLARQRYEDQLKQQQLLNEENLRKQEESVQKQEAIRRATVEREMELRHKNEMLRVEAEARARAKADRENADIIREQIRLKAAEHRQTILESIRTAGTLLGEGFRAFVTDWDKVTATVAGLTLLAVGVYSAKNATSVAGRYIEARLGKPSLVRETSRISVLEALRHPIQVSRRLVSRPQDALEGVILSPSLEARVRDIAIATRNTKKNKSLYRNVLMYGPPGTGKTLFAKKLALHSGMDYAIMTGGDVAPMGREGVTAMHKVFDWASTSRRGLLLFVDEADAFLRKRATEKISEDLRATLNAFLHRTGQHSSKFMLVLASNQPEQFDWAINDRIDEMVCFALPQREERERLVRMYFDKYVLKPATEGKQRLKVAQFDYGKKCSEVAQLTEGMSGREIAQLAVAWQAMAYSSEDGVLTEAMMDARVQDAVQQHQQKMQWLKVERPDSQTNKPPHPSLLSC
With B5 the binding was “binds”.

B6: Up-regulated during skeletal muscle growth protein 5 (protein, UniProt Q78IK2 1-58)
chain: MAGAESDGQFQFTGIKKYFNSYTLTGRMNCVLATYGGIALLVLYFKLRPKKTPAVKAT
With B6 the binding was “binds”.

B7: Emopamil binding protein (protein, UniProt P70245 1-230)
chain: MTTNTVPLHPYWPRHLKLDNFVPNDLPTSHILVGLFSISGGLIVITWLLSSRASVVPLGAGRRLALCWFAVCTFIHLVIEGWFSLYNGILLEDQAFLSQLWKEYSKGDSRYILSDSFVVCMETVTACLWGPLSLWVVIAFLRQQPFRFVLQLVVSMGQIYGDVLYFLTELHEGLQHGEIGHPVYFWFYFVFLNAVWLVIPSILVLDAIKHLTSAQSVLDSKVMKIKSKHN
With B7 the binding was “binds”.

B8: LINE-1 type transposase domain-containing protein 1 (protein, UniProt Q587J6 1-782)
chain: MSGVQSKAARLQKERKEKLSADRERKTATSLCLKHSEVPASMMKQFNALMEMQEVMFAEMRETYKNDIKEMLLKRTAPWVKHLEERIGQQEGDAISERPKPGEKVEELSSGTDEDTENLTVRSKKGKQDKAKPLNSSHVLKSSLERGGEALRGEHGRCGESSSLVDWKNANEKPAREASCQSEENRLKAPKESPPEGGAGATLRLAADFSAATLDVGRQWSQVFRLLKEKELEPELQCSVKLAFKCDGEANVFSDLHSLRQFTSRKPFLRELLKDVFPQNEGGRRNELRERLGKTLGDTKHEARRIASDSLSFLFIKEVEVASPEVKTYKEETLDRKNKGTLKKQEGEEEEISETQGEETSEGETSELGEEEGSESEEEEESSESEEEEESSESAEEIGFISLVVDSESEEEVNRKTASQTKKKETFHGLKELAFSYLVWDSKKKKLVRCQEGGAAAASTQRIGMPCLTLYLTSPSESLGAGSDGPKSHSCTKLSALSQVTPLLTNIEKGRYKVPQTEEPTAKEADLILETEENFKRGVISVIRQMQREVDKIKNIYVSDVLNMKSSLDDLNSLACTIEARVSEQEDAVEGLTKDTMQLAREIVDKERLREREDRFRSSNIRVIGIPEKENRENGAVDIIKEVIEENFAELEDQSLEIVSAHRVPNSVDEHRLTPRHILVKFGSASDKQRVLKASRAKQEITYRGSKIRLTADLSPGTIDARSQWCGIIKILQDEGFQPRILYPAKLAFDFKGKTKIFFDIEEFKKFISDIPYLKDLLNNIH
For B8, the binding was “binds”.

B9: Golgi-associated plant pathogenesis-related protein 2 (protein, UniProt Q9CYL5 1-154)
chain: MGKSASKQFNNEVLKAHNEYRAQHGVPPLKLCKKLNREAQQYSEALASTRILKHSPESSRGQCGENLAWASYDQTGKDVADRWYSEIKSYNFQQPGFTSGTGHFTAMVWKNTKKIGVGKASASDGSSFVVARYFPAGNIVNQGFFEENVPPPKK
With B9 the binding was “binds”.

B10: Prohibitin-1 (protein, UniProt P67778 1-272)
chain: MAAKVFESIGKFGLALAVAGGVVNSALYNVDAGHRAVIFDRFRGVQDIVVGEGTHFLIPWVQKPIIFDCRSRPRNVPVITGSKDLQNVNITLRILFRPVASQLPRIYTSIGEDYDERVLPSITTEILKSVVARFDAGELITQRELVSRQVSDDLTERAATFGLILDDVSLTHLTFGKEFTEAVEAKQVAQQEAERARFVVEKAEQQKKAAIISAEGDSKAAELIANSLATAGDGLIELRKLEAAEDIAYQLSRSRNITYLPAGQSVLLQLPQ
B10 was tested, and the binding was “binds”.

B11: Vesicle-associated membrane protein-associated protein A (protein, UniProt Q9WV55 1-249)
chain: MASASGAMAKHEQILVLDPPSDLKFKGPFTDVVTTNLKLQNPSDRKVCFKVKTTAPRRYCVRPNSGIIDPGSIVTVSVMLQPFDYDPNEKSKHKFMVQTIFAPPNISDMEAVWKEAKPDELMDSKLRCVFEMPNENDKLNDMEPSKAVPLNASKQDGPLPKPHSVSLNDTETRKLMEECKRLQGEMMKLSEENRHLRDEGLRLRKVAHSDKPGSTSAVSFRDNVTSPLPSLLVVIAAIFIGFFLGKFIL
With B11 the binding was “binds”.

B12: Exportin-T (protein, UniProt Q9CRT8 1-963)
chain: MDEQALLGLNPNADSDFRQRALAYFEQLKISPDAWQVCAEALAQKTYSDDHVKFFCFQVLEHQVKYKYSELSTAQQQLIRETLLSWLQAQMQNPQPEKTFIRNKAAQVFALLFVTEYLTKWPKFFFDILSVVDLNPRGVDLYLRILMAIDSELVDRDVVHTSEASGLENTLIKDTMREQCIPNLVESWYQILHNYQYTNSEVLCQCLEVVGAYVSWIDLSLIANDRFINMLLGHMSVEVLREEACDCLFEIVNKGMDPVDKMKLVESLCQVLQTAGFFSIDQEEDLDFVARFSKLVNGMGQSLIVSWTKLIKNGAVKNAQEALEAIETKVPLMLQLLVHEDDDISSNIIGFCYDYLHILKQLPVLSDQQKANVEAIMLAVMKKLTYDEEYNFENEGEDEAMFVEYRKQLKLLLDRLAQVSPELVLASVRRVFSATLQNWQTTRFMEVEVAVRLLYMLAEALPVSHGAHFSGDVSKASALQDMMRTLVTSGVSSYQHTSVTLEFFETVVRYEKFFTVEPQHIPCVLMAFLDHRGLWHSSAKVRSRTAYLFSRFVKSLNKQMNPYIEEILNRIQDLLALSPPENGYQSLLSSDDQLFIYETAGALIVNSEYPAENKQALMKDLLTPLMERFKVLLEKLMMAQDEERQASLADSLNHAVGFASRTSKAFSNKQTVKQCGCSQVYLDCLQTFLPALSCPLQKDVLRSGVRTFLHRMIICLEEEVLPFIPSASEHMLKDCEAKDLQEFIPLINQITAKFKMQVSPFLQQMFMPLLHAIFEVLLRPAEDNDQSAALEKQMLRRSYFAFLQTVTGSGMSEVIANQGAENVEQVLVTIIQGAVDYPDPIAQKTCFIILSKLVELWGGKDGPVGFADFVYKHIVPACFLAPLKQTFDLADAQTVLALSECAVTLKTIHLKRGPECVQYLQQEYLPSLQVAPEIIQEFCQALQQPDAKVFKNYLKVFFQRAKP
In the case of B12, the binding is reported as “binds”.

B13: Cytochrome b5 type B (protein, UniProt Q9CQX2 12-146)
chain: KVEGSEPSVTYYRLEEVAKRNSAEETWMVIHGRVYDITRFLSEHPGGEEVLLEQAGADATESFEDVGHSPDAREMLKQYYIGDVHPSDLKPKGDDKDPSKNNSCQSSWAYWFVPIVGAILIGFLYRHFWADSKSS
B13 was tested, and the binding was “binds”.
